Data source: PubChem BioAssay AID743121 (NCATS, 2013)

- Test: 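Partners whose loss is lethal together with topoisomerase I blockade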 (primary screen)
- Cell system: MDA-MB-231 cells, a human breast cancer line
- Reagent: single siRNA against human genes, 20 nM siRNA (0.8 pmol per well)
- Timing: 120 h (drug added 48 h after transfection, read 72 h later)
- Challenge: camptothecin 20 nM (about EC30) for 72 h; vehicle 0.1% DMSO in parallel plates
- Read-out: 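Cell viability by ATP luminescence (CellTiter-Glo) as % of non-targeting siRNA wells, and the log2 ratio of viability without drug over viability with camptothecin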
- Reading the numbers: log2 vehicle/camptothecin viability: higher = stronger sensitisation to camptothecin; viability with camptothecin and viability without drug: higher = more viable cells
- Hit rule: 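Active genes have an RSA gene-level p-value below 0.001, computed from the ratios of their separate siRNAs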
This is a random part of about 26,000 reagents. 167 of all reagents (0.63%) were called active. 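Calls are per gene from RSA p-values that are not deposited; an individual active-marked siRNA can sensitise only weakly.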 Reagents against one gene are numbered here.

| gene knocked down | siRNA no. | log2 vehicle/camptothecin viability | viability with camptothecin (% of control) | viability without drug (% of control) | call |
| --- | --- | --- | --- | --- | --- |
| PTTG2 (GeneID 10744) | 1 | 0.567 | 11.3 | 16.7 | inactive |
| PTTG2 (GeneID 10744) | 2 | -0.583 | 86.1 | 57.5 | inactive |
| PTTG2 (GeneID 10744) | 3 | -0.286 | 63.9 | 52.4 | inactive |
| PTTG2 (GeneID 10744) | 4 | 0.00111 | 80 | 80.1 | inactive |
| KDELR1 (GeneID 10945) | 1 | 0.527 | 34.7 | 50 | inactive |
| KDELR1 (GeneID 10945) | 2 | -0.0939 | 40.8 | 38.3 | inactive |
| KDELR1 (GeneID 10945) | 3 | -0.243 | 74.2 | 62.7 | inactive |
| PNLIPRP2 (GeneID 5408) | 1 | 0.0371 | 81.6 | 83.8 | inactive |
| PNLIPRP2 (GeneID 5408) | 2 | -0.446 | 62.2 | 45.7 | inactive |
| PNLIPRP2 (GeneID 5408) | 3 | -0.16 | 28.6 | 25.6 | inactive |
| OR7C2 (GeneID 26658) | 1 | 0.58 | 43.4 | 64.8 | active |
| OR7C2 (GeneID 26658) | 2 | 1.64 | 17.2 | 53.6 | active |
| OR7C2 (GeneID 26658) | 3 | 0.157 | 83 | 92.5 | active |
| OR7C2 (GeneID 26658) | 4 | 0.163 | 99.1 | 111 | active |
| ACP1 (GeneID 52) | 1 | -0.071 | 105 | 99.9 | inactive |
| ACP1 (GeneID 52) | 2 | -0.458 | 80.6 | 58.7 | inactive |
| ACP1 (GeneID 52) | 3 | 0.221 | 83.5 | 97.3 | inactive |
| ACP1 (GeneID 52) | 4 | -0.0424 | 101 | 98 | inactive |
| ACP1 (GeneID 52) | 5 | -0.385 | 72.5 | 55.5 | inactive |
| ACP1 (GeneID 52) | 6 | -0.06 | 129 | 123 | inactive |
| ACP1 (GeneID 52) | 7 | -0.179 | 27.5 | 24.3 | inactive |
| ACP1 (GeneID 52) | 8 | 0.492 | 35.3 | 49.7 | inactive |
| CACNA2D4 (GeneID 93589) | 1 | -0.253 | 100 | 84.1 | inactive |
| CACNA2D4 (GeneID 93589) | 2 | -0.126 | 67.1 | 61.5 | inactive |
| CACNA2D4 (GeneID 93589) | 3 | 0.226 | 26.7 | 31.3 | inactive |
| CACNA2D4 (GeneID 93589) | 4 | 0.0896 | 97.8 | 104 | inactive |
| MYC (GeneID 4609) | 1 | -0.575 | 72.8 | 48.9 | inactive |
| MYC (GeneID 4609) | 2 | -0.201 | 51.3 | 44.7 | inactive |
| MYC (GeneID 4609) | 3 | -0.248 | 50.2 | 42.3 | inactive |
| MYC (GeneID 4609) | 4 | -0.474 | 66.3 | 47.8 | inactive |
| TSPAN7 (GeneID 7102) | 1 | 0.417 | 61.7 | 82.4 | inactive |
| TSPAN7 (GeneID 7102) | 2 | -0.381 | 76.3 | 58.6 | inactive |
| TSPAN7 (GeneID 7102) | 3 | -0.2 | 106 | 92.3 | inactive |
| TNS2 (GeneID 23371) | 1 | -0.369 | 96.8 | 75 | inactive |
| TNS2 (GeneID 23371) | 2 | -0.0947 | 63.4 | 59.4 | inactive |
| TNS2 (GeneID 23371) | 3 | 0.639 | 32.3 | 50.3 | inactive |
| TNS2 (GeneID 23371) | 4 | -0.051 | 43 | 41.5 | inactive |
| TEC (GeneID 7006) | 1 | 0.213 | 47.5 | 55 | inactive |
| TEC (GeneID 7006) | 2 | -0.488 | 85.2 | 60.7 | inactive |
| TEC (GeneID 7006) | 3 | -0.0999 | 36.6 | 34.1 | inactive |
| TEC (GeneID 7006) | 4 | 0.359 | 59.5 | 76.3 | inactive |
| NEDD8 (GeneID 4738) | 1 | 0.377 | 91.2 | 118 | inactive |
| NEDD8 (GeneID 4738) | 2 | 0.0238 | 90.2 | 91.7 | inactive |
| NEDD8 (GeneID 4738) | 3 | 0.489 | 42.7 | 60 | inactive |
| GLP1R (GeneID 2740) | 1 | 0.417 | 45.8 | 61.1 | inactive |
| GLP1R (GeneID 2740) | 2 | -0.309 | 83.3 | 67.3 | inactive |
| GLP1R (GeneID 2740) | 3 | -0.533 | 116 | 80 | inactive |
| GLP1R (GeneID 2740) | 4 | -0.154 | 64.5 | 58 | inactive |

Entries listed so far whose gene name starts with K or k:
| gene knocked down | siRNA no. | log2 vehicle/camptothecin viability | viability with camptothecin (% of control) | viability without drug (% of control) | call |
| --- | --- | --- | --- | --- | --- |
| KDELR1 (GeneID 10945) | 1 | 0.527 | 34.7 | 50 | inactive |
| KDELR1 (GeneID 10945) | 2 | -0.0939 | 40.8 | 38.3 | inactive |
| KDELR1 (GeneID 10945) | 3 | -0.243 | 74.2 | 62.7 | inactive |
